Reference: the supplement of paper PMC11006884
Only a part is listed here, and it is no random draw.

Chains of the proteins cited; added tags and fusions are not shown. Lines headed by an entry give the natural chain unless they say otherwise; changes in a name come on top.
UniProt Q9BZV1: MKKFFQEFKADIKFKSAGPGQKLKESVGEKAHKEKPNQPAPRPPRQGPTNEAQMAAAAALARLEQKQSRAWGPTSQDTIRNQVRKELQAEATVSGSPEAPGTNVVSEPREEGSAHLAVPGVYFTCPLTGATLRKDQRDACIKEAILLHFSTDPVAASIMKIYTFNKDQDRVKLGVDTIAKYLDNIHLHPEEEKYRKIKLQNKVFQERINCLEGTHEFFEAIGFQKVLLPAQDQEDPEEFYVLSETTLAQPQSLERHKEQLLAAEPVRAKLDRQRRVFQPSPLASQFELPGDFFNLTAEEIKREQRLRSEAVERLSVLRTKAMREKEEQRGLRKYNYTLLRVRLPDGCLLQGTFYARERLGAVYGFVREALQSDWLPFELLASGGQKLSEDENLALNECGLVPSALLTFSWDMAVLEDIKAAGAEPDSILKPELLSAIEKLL
UniProt Q9GZR7: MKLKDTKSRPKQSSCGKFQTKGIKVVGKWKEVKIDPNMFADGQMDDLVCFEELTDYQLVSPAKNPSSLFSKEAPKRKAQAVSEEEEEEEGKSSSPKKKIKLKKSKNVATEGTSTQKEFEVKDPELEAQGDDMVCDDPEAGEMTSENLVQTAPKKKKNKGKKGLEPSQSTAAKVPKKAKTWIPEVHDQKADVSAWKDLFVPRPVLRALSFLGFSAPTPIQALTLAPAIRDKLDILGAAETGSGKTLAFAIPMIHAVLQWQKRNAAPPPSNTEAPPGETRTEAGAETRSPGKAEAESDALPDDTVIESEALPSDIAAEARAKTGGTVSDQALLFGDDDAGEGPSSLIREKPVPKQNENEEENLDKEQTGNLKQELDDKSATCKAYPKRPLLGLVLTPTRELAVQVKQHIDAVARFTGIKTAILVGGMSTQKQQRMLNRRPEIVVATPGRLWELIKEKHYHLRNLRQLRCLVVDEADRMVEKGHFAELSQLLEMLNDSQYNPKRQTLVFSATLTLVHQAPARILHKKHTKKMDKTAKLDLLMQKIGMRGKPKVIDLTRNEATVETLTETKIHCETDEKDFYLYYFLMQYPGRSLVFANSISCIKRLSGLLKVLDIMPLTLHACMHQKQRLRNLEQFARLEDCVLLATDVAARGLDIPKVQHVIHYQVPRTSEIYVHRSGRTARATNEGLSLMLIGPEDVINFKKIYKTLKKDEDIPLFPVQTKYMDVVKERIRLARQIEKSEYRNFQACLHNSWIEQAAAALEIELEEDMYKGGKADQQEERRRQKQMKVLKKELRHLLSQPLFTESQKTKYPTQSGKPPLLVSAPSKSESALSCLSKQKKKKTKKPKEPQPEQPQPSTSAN
UniProt Q9BY44: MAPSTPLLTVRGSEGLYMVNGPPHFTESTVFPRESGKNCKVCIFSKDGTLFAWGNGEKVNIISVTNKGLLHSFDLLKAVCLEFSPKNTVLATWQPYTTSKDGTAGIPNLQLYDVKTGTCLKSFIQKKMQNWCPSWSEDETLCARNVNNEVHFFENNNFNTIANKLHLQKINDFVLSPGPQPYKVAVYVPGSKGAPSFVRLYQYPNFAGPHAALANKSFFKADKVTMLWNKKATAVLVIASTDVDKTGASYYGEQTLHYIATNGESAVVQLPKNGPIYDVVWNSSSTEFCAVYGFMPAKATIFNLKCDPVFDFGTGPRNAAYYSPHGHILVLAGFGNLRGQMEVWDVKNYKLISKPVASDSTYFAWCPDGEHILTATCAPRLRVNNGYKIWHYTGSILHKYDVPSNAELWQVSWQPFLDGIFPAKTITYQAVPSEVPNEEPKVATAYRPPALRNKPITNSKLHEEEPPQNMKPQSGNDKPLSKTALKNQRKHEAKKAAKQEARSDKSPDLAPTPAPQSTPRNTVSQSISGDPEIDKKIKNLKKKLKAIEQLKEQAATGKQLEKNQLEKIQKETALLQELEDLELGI
UniProt Q9BSH5: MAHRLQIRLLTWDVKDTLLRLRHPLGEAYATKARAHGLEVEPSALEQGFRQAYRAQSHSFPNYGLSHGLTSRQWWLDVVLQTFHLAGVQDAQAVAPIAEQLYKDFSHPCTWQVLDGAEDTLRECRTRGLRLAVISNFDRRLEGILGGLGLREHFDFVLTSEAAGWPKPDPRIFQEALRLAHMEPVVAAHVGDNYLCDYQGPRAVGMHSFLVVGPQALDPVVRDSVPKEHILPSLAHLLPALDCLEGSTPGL
UniProt Q9BRJ6: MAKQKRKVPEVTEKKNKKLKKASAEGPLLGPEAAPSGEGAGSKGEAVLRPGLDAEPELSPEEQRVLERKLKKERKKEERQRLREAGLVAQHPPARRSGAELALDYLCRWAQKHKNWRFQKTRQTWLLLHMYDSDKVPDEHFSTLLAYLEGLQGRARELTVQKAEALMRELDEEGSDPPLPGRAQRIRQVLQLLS
UniProt Q9BTT6: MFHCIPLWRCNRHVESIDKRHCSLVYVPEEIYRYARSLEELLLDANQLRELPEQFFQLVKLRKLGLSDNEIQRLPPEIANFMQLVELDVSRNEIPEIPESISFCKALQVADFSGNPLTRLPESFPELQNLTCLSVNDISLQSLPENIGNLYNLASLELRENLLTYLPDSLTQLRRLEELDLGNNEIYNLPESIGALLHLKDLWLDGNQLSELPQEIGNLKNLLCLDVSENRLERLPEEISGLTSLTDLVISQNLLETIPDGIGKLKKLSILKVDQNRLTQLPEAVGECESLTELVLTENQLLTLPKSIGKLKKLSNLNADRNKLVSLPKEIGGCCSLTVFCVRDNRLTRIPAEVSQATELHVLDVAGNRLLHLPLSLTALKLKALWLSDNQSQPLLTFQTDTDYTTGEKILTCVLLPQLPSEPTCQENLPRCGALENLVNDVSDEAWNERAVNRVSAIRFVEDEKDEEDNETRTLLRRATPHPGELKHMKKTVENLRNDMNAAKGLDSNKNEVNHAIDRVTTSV
UniProt Q9BYB4: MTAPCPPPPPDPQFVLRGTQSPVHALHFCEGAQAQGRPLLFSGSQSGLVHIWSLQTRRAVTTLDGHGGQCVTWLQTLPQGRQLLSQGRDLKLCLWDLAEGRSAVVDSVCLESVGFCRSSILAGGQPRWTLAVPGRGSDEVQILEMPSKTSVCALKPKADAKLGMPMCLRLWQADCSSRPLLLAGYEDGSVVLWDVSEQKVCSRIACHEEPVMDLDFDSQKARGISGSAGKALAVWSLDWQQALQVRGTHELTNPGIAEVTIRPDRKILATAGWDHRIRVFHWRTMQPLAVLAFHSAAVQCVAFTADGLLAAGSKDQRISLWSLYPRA
UniProt Q9BVG4: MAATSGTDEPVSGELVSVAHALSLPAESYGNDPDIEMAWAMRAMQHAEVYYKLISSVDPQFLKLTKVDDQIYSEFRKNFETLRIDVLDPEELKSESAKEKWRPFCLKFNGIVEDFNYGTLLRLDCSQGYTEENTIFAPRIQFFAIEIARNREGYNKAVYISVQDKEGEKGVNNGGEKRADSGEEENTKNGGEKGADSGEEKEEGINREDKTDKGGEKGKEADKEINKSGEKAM
UniProt Q9BTX1: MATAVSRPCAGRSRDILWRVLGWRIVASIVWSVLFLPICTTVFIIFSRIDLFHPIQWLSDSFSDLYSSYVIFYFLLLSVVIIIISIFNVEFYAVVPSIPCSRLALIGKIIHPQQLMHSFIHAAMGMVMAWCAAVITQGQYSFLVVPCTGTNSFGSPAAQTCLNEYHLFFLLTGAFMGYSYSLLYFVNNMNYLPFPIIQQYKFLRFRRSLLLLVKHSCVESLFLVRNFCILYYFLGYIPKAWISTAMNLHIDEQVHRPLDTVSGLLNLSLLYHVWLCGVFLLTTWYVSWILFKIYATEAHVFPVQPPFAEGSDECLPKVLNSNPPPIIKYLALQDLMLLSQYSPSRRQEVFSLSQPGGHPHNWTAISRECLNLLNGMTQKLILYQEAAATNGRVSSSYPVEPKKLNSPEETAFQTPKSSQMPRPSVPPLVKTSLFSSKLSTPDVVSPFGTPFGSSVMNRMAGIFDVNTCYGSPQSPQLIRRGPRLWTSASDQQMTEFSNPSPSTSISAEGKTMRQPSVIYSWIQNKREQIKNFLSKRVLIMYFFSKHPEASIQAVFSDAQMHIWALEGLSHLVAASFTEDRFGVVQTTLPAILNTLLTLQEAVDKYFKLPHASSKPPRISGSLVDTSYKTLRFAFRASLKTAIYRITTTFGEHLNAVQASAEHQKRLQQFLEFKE
UniProt Q9H1B7, whole entry, looked up: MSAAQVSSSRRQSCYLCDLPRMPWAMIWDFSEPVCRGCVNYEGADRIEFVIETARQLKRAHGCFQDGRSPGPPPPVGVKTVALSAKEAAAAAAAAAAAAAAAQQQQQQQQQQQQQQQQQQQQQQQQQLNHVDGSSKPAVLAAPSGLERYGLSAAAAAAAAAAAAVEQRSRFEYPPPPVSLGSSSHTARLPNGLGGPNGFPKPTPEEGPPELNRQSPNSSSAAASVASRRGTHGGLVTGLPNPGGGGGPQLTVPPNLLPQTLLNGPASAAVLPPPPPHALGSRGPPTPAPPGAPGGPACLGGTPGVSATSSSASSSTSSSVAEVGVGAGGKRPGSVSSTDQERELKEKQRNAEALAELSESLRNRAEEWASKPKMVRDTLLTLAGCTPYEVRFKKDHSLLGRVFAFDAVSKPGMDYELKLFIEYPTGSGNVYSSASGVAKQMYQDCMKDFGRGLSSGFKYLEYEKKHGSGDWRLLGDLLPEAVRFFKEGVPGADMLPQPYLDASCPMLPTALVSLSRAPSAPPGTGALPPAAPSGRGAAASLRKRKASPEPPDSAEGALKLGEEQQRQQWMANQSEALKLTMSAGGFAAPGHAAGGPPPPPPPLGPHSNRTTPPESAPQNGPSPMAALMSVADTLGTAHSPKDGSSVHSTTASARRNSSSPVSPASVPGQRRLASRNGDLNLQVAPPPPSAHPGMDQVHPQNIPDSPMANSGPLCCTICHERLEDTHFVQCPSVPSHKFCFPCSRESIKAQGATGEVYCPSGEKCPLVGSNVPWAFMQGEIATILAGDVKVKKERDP
UniProt Q9BWD1: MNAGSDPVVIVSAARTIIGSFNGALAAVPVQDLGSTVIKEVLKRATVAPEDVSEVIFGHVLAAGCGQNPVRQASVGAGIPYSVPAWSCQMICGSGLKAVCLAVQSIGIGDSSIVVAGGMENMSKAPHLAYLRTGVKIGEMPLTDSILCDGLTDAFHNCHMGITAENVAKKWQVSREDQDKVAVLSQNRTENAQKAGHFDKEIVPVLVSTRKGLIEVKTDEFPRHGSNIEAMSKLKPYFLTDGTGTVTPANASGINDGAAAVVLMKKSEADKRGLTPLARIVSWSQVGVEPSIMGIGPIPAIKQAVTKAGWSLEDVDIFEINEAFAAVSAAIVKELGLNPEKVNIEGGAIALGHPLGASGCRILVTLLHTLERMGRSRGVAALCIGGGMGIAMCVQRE
UniProt Q9BSD7: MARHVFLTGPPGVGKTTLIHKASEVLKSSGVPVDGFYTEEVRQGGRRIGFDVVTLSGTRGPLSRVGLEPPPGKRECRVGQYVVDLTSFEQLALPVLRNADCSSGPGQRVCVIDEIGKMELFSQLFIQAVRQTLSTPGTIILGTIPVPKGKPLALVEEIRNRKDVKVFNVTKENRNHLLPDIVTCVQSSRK
UniProt Q9GZT9: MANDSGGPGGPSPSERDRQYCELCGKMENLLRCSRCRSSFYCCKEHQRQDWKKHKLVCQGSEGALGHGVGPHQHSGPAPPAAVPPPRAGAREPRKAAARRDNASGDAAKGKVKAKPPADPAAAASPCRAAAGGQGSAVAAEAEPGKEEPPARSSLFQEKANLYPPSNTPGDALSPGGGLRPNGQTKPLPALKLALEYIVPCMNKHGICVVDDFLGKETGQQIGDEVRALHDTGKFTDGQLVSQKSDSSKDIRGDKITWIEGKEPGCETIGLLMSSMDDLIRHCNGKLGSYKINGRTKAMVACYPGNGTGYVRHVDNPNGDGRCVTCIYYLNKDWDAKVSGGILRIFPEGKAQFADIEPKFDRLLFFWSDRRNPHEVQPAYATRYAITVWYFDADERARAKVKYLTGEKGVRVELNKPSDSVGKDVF
UniProt Q9H1K1: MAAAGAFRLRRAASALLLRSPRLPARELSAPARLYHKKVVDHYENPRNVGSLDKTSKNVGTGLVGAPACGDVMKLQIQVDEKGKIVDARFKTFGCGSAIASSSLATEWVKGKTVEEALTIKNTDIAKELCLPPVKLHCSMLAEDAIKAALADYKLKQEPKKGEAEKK
UniProt Q9BZI7: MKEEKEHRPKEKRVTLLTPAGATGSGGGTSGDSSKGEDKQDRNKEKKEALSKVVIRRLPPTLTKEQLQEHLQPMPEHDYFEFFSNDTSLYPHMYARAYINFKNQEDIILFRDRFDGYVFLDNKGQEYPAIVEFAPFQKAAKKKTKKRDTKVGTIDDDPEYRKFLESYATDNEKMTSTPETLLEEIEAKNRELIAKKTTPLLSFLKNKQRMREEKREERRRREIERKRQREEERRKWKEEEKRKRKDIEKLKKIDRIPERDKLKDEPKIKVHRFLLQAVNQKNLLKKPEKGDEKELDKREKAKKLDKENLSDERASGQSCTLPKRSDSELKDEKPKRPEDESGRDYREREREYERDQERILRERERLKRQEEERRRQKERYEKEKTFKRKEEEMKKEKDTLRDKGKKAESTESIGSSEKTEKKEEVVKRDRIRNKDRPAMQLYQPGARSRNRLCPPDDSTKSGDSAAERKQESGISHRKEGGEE

Compound: COC(=O)C#Cc1ccccc1 [methyl 3-phenylpropiolate]
Test: log2 ratio of iodoacetamide-alkyne labeling of the cysteine site, DMSO over compound (competition); higher = stronger covalent engagement of the cysteine by the compound, active = 1 or more
Conditions: 500 µM; treatment time 1 h; system: HEK293T cell lysate
Outline: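 After 1 h at ambient temperature with vehicle or electrophile (500 µM), HEK293T lysate (2 mg/mL) was labelled for 1 h with iodoacetamide alkyne and clicked to sCIP-TMT reagents. Pooled samples were trypsin-digested overnight at 37 °C, streptavidin-enriched, acid-eluted and analysed by Orbitrap Eclipse LC-MS/MS with FAIMS, then quantified in FragPipe over three replicates with duplicate channels. A cysteine's log2 competition ratio is its mean control-channel over mean compound-channel reporter intensity. Cysteines quantified in only one replicate were not included.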

log2 ratio of iodoacetamide-alkyne labeling, inactive:
UBXN6 C210 (UniProt Q9BZV1) -0.245
DDX24 C467 (UniProt Q9GZR7) 0.384
PI4K2A C320 (UniProt Q9BTU6) 0.261
DIDO1 C976 (UniProt Q9BTC0) 0.77
SLC12A9 C911 (UniProt Q9BXP2) 0.192
EIF2A C306 (UniProt Q9BY44) 0.165
HDHD3 C243 (UniProt Q9BSH5) 0.16
C7orf50 C107 (UniProt Q9BRJ6) 0.318
UniProt Q9BTT6_C432 0.39
GNB1L C116 (UniProt Q9BYB4) 0.259
NDFIP1 C15 (UniProt Q9BT67) 0.466
UniProt Q9BVG4_C125 0.454
UniProt Q9BTX1_C468 0.715
UniProt Q9H1B7_C504 0.525
ACAT2 C65 (UniProt Q9BWD1) -0.126
KLC2 C474 (UniProt Q9H0B6) 0.252
UniProt Q9BSD7_C110 0.358
EGLN1 C127 (UniProt Q9GZT9) 0.628
UniProt Q9BTT6_C22 0.382
ISCU C69 (UniProt Q9H1K1) 0.344
UPF3B C319 (UniProt Q9BZI7) 0.505
UniProt Q9H1B7_C35 0.0893
UniProt Q9BXJ9_C465 0.109

At a glance, some entries already given.
log2 ratio of iodoacetamide-alkyne labeling, inactive:
SLC12A9 C911 (UniProt Q9BXP2) 0.192
EIF2A C306 (UniProt Q9BY44) 0.165
